These results are taken from PubChem BioAssay AID493191 (Broad Institute, 2011).

Hit rate of the full screen: of about 1,300 compounds, about 330 (25%) were called active. The rule behind the calls is not given here. This is a selection; strong and weak results do not stand in their true shares. Entries with a potency or affinity are not part of this list.

This experiment is described as follows: growth inhibition of MALME3 cells – cell-based, CellTiter-Glo, cherry-picked, orthogonal assay for MITF inhibitor project, dose response (AID 493191). Particulars: MALME3 melanoma viability, CellTiter-Glo luminescence, 24 h; at 35 µM (top of the series). (In ATP-based viability assays light output follows the ATP content of the culture.)
As for `Cc1cc(C)cc(N2C(=O)NC(=O)/C(=C\c3cccn3-c3ccccc3)C2=O)c1`, the activity change, negative = inhibition is inactive: -30%. The same measure for `O=C1NC(=S)NC(=O)C1=Cc1cccc2cc3ccccc3cc12`: inactive: -17.5%; for `O=C1NC(=O)C(=Cc2ccc(-c3ccc(Cl)cc3)o2)C(=O)N1`: inactive: -13.6%. The same measure for `CCCCCn1c(=O)c(C(=O)Nc2cnccn2)c(O)c2ccccc21`: inactive: -9.54%; for `CCOC(=O)c1c(-n2c(C)cc(C=C3C(=O)NC(=S)NC3=O)c2C)sc2c1CCCC2`: inactive: -8.46%; for `C=CCN1C(=O)NC(=O)/C(=C/C=C/c2ccccc2)C1=O`: inactive: 7.07%. The same measure for `O=C1NC(=O)C(=Cc2ccc(-c3cc(Cl)ccc3[N+](=O)[O-])o2)C(=O)N1`: inactive: -5.83%. Take `C=CCN1C(=O)/C(=C/c2cc(C)n(-c3cccnc3)c2C)C(=O)NC1=S`: the activity change, negative = inhibition was inactive: 0.406%.

Turning to `O=C(Nc1ccc(OC(=O)N2CCCCC2)cc1)N1CCOCC1`, the activity change, negative = inhibition was inactive: 2.72%. Under `CCOc1ccc(-c2cc(C)[n+](CCO)c(-c3ccc(OCC)cc3)c2)cc1` stands inactive: -4.18%; under `CC(C)n1c(O)c(C2c3cc(Cl)ccc3Oc3[nH]c(=O)n(C(C)C)c(=O)c32)c(=O)[nH]c1=O` (configuration not stated), inactive: -7.76%; under `CCc1ccc(N2C(=O)NC(=O)/C(=C\C=C\c3ccco3)C2=O)cc1`, inactive: -11%. Turning to `CCOC(=O)Cn1cc([N+](=O)[O-])nc1[N+](=O)[O-]`, the activity change, negative = inhibition is inactive: -44%.

In the case of `O=C1NC(=O)N(CCc2ccc(F)cc2)C(=O)/C1=C\C=C\c1ccccc1`, the activity change, negative = inhibition was inactive: 46.9%. Under `CN(C)c1ccc(/C=C2/C(=N\O)C3CCN2CC3)cc1` stands inactive: -4.01%; under `O=C1NC(=O)N(c2ccccc2)C(=O)/C1=C/C=C/c1ccco1`, inactive: -10.8%.

Turning to `Cc1cc(C)cc(N2C(=O)NC(=O)/C(=C\C=C\c3ccco3)C2=O)c1`, the activity change, negative = inhibition was inactive: -1%. Regarding `O=C1NC(=O)N(Cc2ccccc2)C(=O)/C1=C/C=C/c1ccco1`, the activity change, negative = inhibition is inactive: -12%. The same measure for `Cc1cccc(N2C(=O)NC(=O)/C(=C\c3cccn3-c3ccc(Cl)cc3)C2=O)c1`: inactive: -36.2%; for `CC(C)c1oc(=O)cc2c1[C@@H](O)[C@H]1OC(=O)[C@@]3(C)C[C@@H](O)[C@@H](O)[C@@]2(C)C13` (some centres not stated): inactive: -19.5%; for `O=C1NC(=S)NC(=O)C1=Cc1cccn1-c1ccc(O)cc1`: inactive: -19%. The same measure for `Cc1ccc(N2C(=O)NC(=O)/C(=C/C=C/c3ccco3)C2=O)cc1`: inactive: -19.4%. Under `CCCCCCn1c(=O)c(C(=O)Nc2cnccn2)c(O)c2ccccc21` stands inactive: -5.24%; under `C/C(=C\c1ccc(N(C)C)cc1)[N+](=O)[O-]`, inactive: -15.3%; under `CC(C)N1C(=O)/C(=C/C=C/c2ccco2)C(=O)N(Cc2ccco2)C1=O`, inactive: -25.8%. In the case of `Cc1ccc(-c2cc(-c3ccc(C)cc3)[n+](C)o2)cc1`, the activity change, negative = inhibition was inactive: -14.8%. Under `O=C(c1ccccc1)C(CN1CCCC1)c1ccccc1` (configuration not stated) stands inactive: -12.5%. Under `NC(Cc1nc2ccccc2[nH]1)c1ccc(Cl)cc1` (configuration not stated) stands inactive: 0.031%. The same measure for `O=C1NC(=O)N(Cc2ccccc2)C(=O)/C1=C\C=C\c1ccco1`: inactive: -5.11%. With `Cc1cc(C(=O)Nc2ccccc2)nn1C(C)(C)C`, the activity change, negative = inhibition was inactive: 2.03%. The same measure for `CN1C(=O)/C(=C/c2cccn2-c2ccc3ccccc3c2)C(=O)NC1=S`: inactive: -28.2%; for `CC(C)c1ccc(N2C(=O)NC(=O)/C(=C/C=C/c3ccco3)C2=O)cc1`: inactive: 6.53%. The same measure for `O=C1NC(=O)N(Cc2ccccc2Cl)C(=O)/C1=C/c1cccs1`: inactive: -24.6%; for `O=C1NC(=O)N(Cc2ccc(F)cc2)C(=O)/C1=C\C=C\c1ccco1`: inactive: -11.3%; for `CC[n+]1c(/C=C/N(C)c2ccccc2)sc2ccc(Cl)cc21`: inactive: -37.5%. For the compound `Cc1cccc(N2C(=O)NC(=O)/C(=C\C=C\c3ccco3)C2=O)c1`, the activity change, negative = inhibition is inactive: -18.2%. Under `Cc1ccc(N2C(=O)NC(=O)/C(=C\C=C\c3ccco3)C2=O)cc1` stands inactive: -27.9%; under `O=c1[nH]c(=S)[nH]c(O)c1N=Nc1ccc(S(=O)(=O)N2CCc3ccccc32)cc1`, inactive: -12.2%. Under `Cc1cc(C(=O)Nc2ccc3c(c2)OCCO3)nn1C(C)(C)C` stands inactive: -3.19%; under `COc1cc2c(cc1/C=C/[N+](=O)[O-])OCO2`, inactive: -33%; under `NCCc1ccc(OCc2ccccc2)c(OCc2ccccc2)c1`, -82.1%.

On to `COc1ccc(-c2cc(-c3ccccc3)[n+](C)c(-c3ccccc3)c2)cc1`, for which the activity change, negative = inhibition is inactive: -39.3%.
